# Test results taken from doi:10.1101/2025.07.25.666749.
# Where two headings read alike, the source gives them in different places. No constants are given. Whether binding was seen depends on the method and setting. Binding seen in cells or lysates may run through a third protein. These calls come from enrichment with a bait or labelling near it, and not all partners need be listed. Where a sequence is shown, tags or fusion partners need not be part of it.
# T1: UltraID_ZFP36L1 (UltraID fused to the N-terminus of ZFP36L1) (UniProt Q07352)
# T1 sequence: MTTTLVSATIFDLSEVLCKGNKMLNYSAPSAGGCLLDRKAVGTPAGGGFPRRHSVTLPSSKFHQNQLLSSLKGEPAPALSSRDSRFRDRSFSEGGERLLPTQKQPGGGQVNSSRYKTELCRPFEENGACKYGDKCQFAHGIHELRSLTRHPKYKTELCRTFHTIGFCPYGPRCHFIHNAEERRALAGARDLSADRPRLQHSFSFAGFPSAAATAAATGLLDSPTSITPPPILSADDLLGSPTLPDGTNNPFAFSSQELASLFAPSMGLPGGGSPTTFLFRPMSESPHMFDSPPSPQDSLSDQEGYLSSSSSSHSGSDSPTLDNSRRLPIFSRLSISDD
# B1: UBAP2 (protein, UniProt Q5T6F2 1-1119)
# chain: MMTSVSSDHCRGAREKPQISAAQSTQPQKQVVQATAEQMRLAQVIFDKNDSDFEAKVKQLMEVTGKNQDECIVALHDCNGDVNKAINILLEGNSDTTSWETVGCKKKNFAKENSENKENREKKSEKESSRGRGNNNRKGRGGNRGREFRGEENGIDCNQVDKPSDRGKRARGRGFGRGRGRGAGRFSTQGMGTFNPADYSDSTSTDVCGTKLVVWEAAQNGADEGTELASNTHNIAQDLSNKSSYGLKGAWKNSVEEWTTEDWTEDLSETKVFTASSAPAENHILPGQSIDLVALLQKPVPHSQASEANSFETSQQQGFGQALVFTNSQHNNQMAPGTGSSTAVNSCSPQSLSSVLGSGFGELAPPKMANITSSQILDQLKAPSLGQFTTTPSTQQNSTSHPTTTTSWDLKPPTSQSSVLSHLDFKSQPEPSPVLSQLSQRQQHQSQAVTVPPPGLESFPSQAKLRESTPGDSPSTVNKLLQLPSTTIENISVSVHQPQPKHIKLAKRRIPPASKIPASAVEMPGSADVTGLNVQFGALEFGSEPSLSEFGSAPSSENSNQIPISLYSKSLSEPLNTSLSMTSAVQNSTYTTSVITSCSLTSSSLNSASPVAMSSSYDQSSVHNRIPYQSPVSSSESAPGTIMNGHGGGRSQQTLDTPKTTGPPSALPSVSSLPSTTSCTALLPSTSQHTGDLTSSPLSQLSSSLSSHQSSLSAHAALSSSTSHTHASVESASSHQSSATFSTAATSVSSSASSGASLSSSMNTANSLCLGGTPASASSSSSRAAPLVTSGKAPPNLPQGVPPLLHNQYLVGPGGLLPAYPIYGYDELQMLQSRLPVDYYGIPFAAPTALASRDGSLANNPYPGDVTKFGRGDSASPAPATTPAQPQQSQSQTHHTAQQPFVNPALPPGYSYTGLPYYTGMPSAFQYGPTMFVPPASAKQHGVNLSTPTPPFQQASGYGQHGYSTGYDDLTQGTAAGDYSKGGYAGSSQAPNKSAGSGPGKGVSVSSSTTGLPDMTGSVYNKTQTFDKQGFHAGTPPPFSLPSVLGSTGPLASGAAPGYAPPPFLHILPAHQQPHSQLLHHHLPQDAQSGSGQRSQPSSLQPKSQASKPAYGNSPYWTN
# B2: DCP1B (protein, UniProt Q8IZD4 1-617)
# chain: MAAVAAGGLVGKGRDISLAALQRHDPYINRIVDVASQVALYTFGHRANEWEKTDVEGTLFVYTRSASPKHGFTIMNRLSMENRTEPITKDLDFQLQDPFLLYRNARLSIYGIWFYDKEECQRIAELMKNLTQYEQLKAHQGTGAGISPVILNSGEGKEVDILRMLIKAKDEYTKCKTCSEPKKITSSSAIYDNPNLIKPIPVKPSENQQQRIPQPNQTLDPEPQHLSLTALFGKQDKATCQETVEPPQTLHQQQQQQQQQQEKLPIRQGVVRSLSYEEPRRHSPPIEKQLCPAIQKLMVRSADLHPLSELPENRPCENGSTHSAGEFFTGPVQPGSPHNIGTSRGVQNASRTQNLFEKLQSTPGAANKCDPSTPAPASSAALNRSRAPTSVTPVAPGKGLAQPPQAYFNGSLPPQTVGHQAHGREQSTLPRQTLPISGSQTGSSGVISPQELLKKLQIVQQEQQLHASNRPALAAKFPVLAQSSGTGKPLESWINKTPNTEQQTPLFQVISPQRIPATAAPSLLMSPMVFAQPTSVPPKERESGLLPVGGQEPPAAATSLLLPIQSPEPSVITSSPLTKLQLQEALLYLIQNDDNFLNIIYEAYLFSMTQAAMKKTM
# Assays:
# [1] = target: T1, UltraID_ZFP36L1 (UltraID fused to the N-terminus of ZFP36L1); experiment: proximity labelling
# [2] = target: T1, UltraID_ZFP36L1 (UltraID fused to the N-terminus of ZFP36L1); experiment: proximity labelling; remark: listed apart in the source
Binder,binding [1],binding [2]
B1,binds,binds
B2,binds,binds
